Values from PubChem BioAssay AID743454 (Peter MacCallum Cancer Centre, 2014)

Screen: 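Search for knock-downs that restore vorinostat killing in resistant colon cancer cells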 (primary screen)
Cells: human HCT116-VR colon cancer cells, selected for vorinostat resistance
Knock-down reagent: siRNA pool against human genes, 40 nM siRNA pool
Timing: vorinostat for 24 h, read-out about 72 h after transfection
Challenge: vorinostat at 2.5 µM final
Measured: 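Cell viability by CellTiter-Fluor and caspase 3/7 activity by luminescence, each scaled to mock wells per plate, duplicates averaged, then robust z-scored over all plates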
Direction: viability robust z-score: higher = more viable cells than screen typical; caspase robust z-score: higher = more caspase 3/7 activity than screen typical
Rule for the call: 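Hits are knock-downs in viability class RV1/RV2 or caspase class CA1/CA2, excluding ones that killed cells in the no-drug cell-count arm; hits then retested with single siRNAs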
Shown is a random part of about 18,000 deposited reagents. Of all reagents, 450 (2.5%) are marked active. 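Single biological run; no consistent viability z cut-off exists, so the class columns, not z-scores, define the calls.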 A number with no mark means an inactive call.

| gene knocked down | viability hit class | caspase hit class | viability robust z-score | caspase robust z-score |
| --- | --- | --- | --- | --- |
| SPDEF | no change | no change | -0.36 | 0.66 |
| GP5 | no change | no change | -0.04 | -0.62 |
| HOXA1 | no change | no change | -0.48 | -0.22 |
| SLAMF6 | no change | no change | 1.11 | 0.86 |
| ARPP19 | no change | no change | -0.1 | -0.84 |
| FOLH1B | no change | no change | -0.19 | -0.4 |
| GLRX5 | no change | no change | 0.64 | -0.68 |
| GSX1 | no change | no change | -0.28 | -0.93 |
| FOXB2 | no change | no change | 0.65 | 0.03 |
| CORIN | no change | no change | -0.82 | 1.77 |
| IFT172 | no change | no change | -1.12 | 2.64 |
| YY1 | no change | no change | 0.21 | 0.95 |
| KMT2E | no change | no change | -0.31 | -0.55 |
| UGT1A8 | no change | no change | -1.6 | 3.63 |
| FLVCR1 | no change | no change | -0.18 | -0.52 |
| PPIA | no change | no change | 0.1 | 0.04 |
| CETN3 | no change | no change | -1.46 | 0.68 |
| GPR55 | no change | no change | 0.3 | -0.78 |
| ADCY6 | no change | no change | 0.68 | 0.48 |
| IFT122 | no change | no change | 0.07 | -0.21 |
| AQP6 | no change | no change | 0.1 | -0.19 |
| TNFSF8 | no change | no change | 0.46 | 0.87 |
| OR6C2 | no change | no change | -1.01 | 0.12 |
| ZNF446 | no change | no change | 0.29 | -0.46 |
| RFTN1 | no change | no change | -0.24 | 1.84 |
| CIMIP6 | no change | no change | 0.32 | 1.36 |
| CCN6 | no change | no change | -0.1 | -0.37 |
| SGSH | no change | no change | 0.16 | 1.12 |
| ADAMTS19 | no change | no change | 0.82 | -0.87 |
| TIA1 | no change | no change | 0.43 | -1.13 |
| CLCN5 | no change | no change | 0.24 | -0.21 |

3 of these entries in another layout.
SGSH → viability hit class: no change; caspase hit class: no change; viability robust z-score: 0.16; caspase robust z-score: 1.12
ADAMTS19 → viability hit class: no change; caspase hit class: no change; viability robust z-score: 0.82; caspase robust z-score: -0.87
TIA1 → viability hit class: no change; caspase hit class: no change; viability robust z-score: 0.43; caspase robust z-score: -1.13

The list goes on:
| gene knocked down | viability hit class | caspase hit class | viability robust z-score | caspase robust z-score |
| --- | --- | --- | --- | --- |
| TIFA | no change | no change | 0.62 | -0.13 |
| KNG1 | no change | no change | 0.31 | -0.36 |
| ANO9 | no change (active) | CA1 (caspase activation) | 1.61 | 5.16 |
| PIWIL3 | no change | no change | 0.41 | -0.03 |
| TMEM176B | no change | no change | -1.01 | -0.56 |
| SLC46A2 | no change | no change | -0.57 | 1.8 |
| ZNF556 | no change | no change | 0.23 | 1.77 |
| SKA3 | no change | no change | 0.82 | 3.12 |
| CSRNP1 | no change | no change | -0.72 | 1.56 |
| GABRR3 | RV2 (reduced viability) (active) | no change | -2.92 | 4.1 |
| WAPL | no change | no change | -0.38 | -0.41 |
| AAK1 | no change | no change | -1.34 | 0.2 |
| BST1 | no change | no change | -0.88 | 1.98 |
| APOBR | no change | no change | 1.54 | 2.23 |
| PLAAT5 | no change (active) | CA1 (caspase activation) | -0.1 | 6.42 |
| ERMN | no change | no change | -0.33 | 1.29 |
| S100A2 | no change | no change | 0.24 | 1.8 |
| GAS8-AS1 | no change | no change | -1.07 | 0.68 |
| ZNF48 | no change (active) | CA2 (caspase activation) | -0.74 | 5.29 |
| BHMT | no change | no change | -0.6 | -0.02 |
| PITX1 | no change | no change | -0.43 | -0.11 |
| CAMP | no change | no change | 0.12 | -1.12 |
| IRAK4 | no change | no change | 0.84 | -0.01 |
| ENPP2 | no change | no change | 0.54 | -0.17 |
| CRACR2B | no change | no change | -0.23 | 3.53 |
| UBE2V1 | no change | no change | -0.55 | -0.8 |
